Test results reported in PMC9278118.
Results are given in words; binding and its absence hold for the method and conditions named. For some assays here: Binding seen in cells or lysates may run through a third protein. Some results given as binding are weak or reduced against the parent protein; the word gives no strength. Tags and fused reporters may be left off the sequences shown.

Protein sequences, listed by entry. Tags and fused reporters are not part of them.
UniProt P17980: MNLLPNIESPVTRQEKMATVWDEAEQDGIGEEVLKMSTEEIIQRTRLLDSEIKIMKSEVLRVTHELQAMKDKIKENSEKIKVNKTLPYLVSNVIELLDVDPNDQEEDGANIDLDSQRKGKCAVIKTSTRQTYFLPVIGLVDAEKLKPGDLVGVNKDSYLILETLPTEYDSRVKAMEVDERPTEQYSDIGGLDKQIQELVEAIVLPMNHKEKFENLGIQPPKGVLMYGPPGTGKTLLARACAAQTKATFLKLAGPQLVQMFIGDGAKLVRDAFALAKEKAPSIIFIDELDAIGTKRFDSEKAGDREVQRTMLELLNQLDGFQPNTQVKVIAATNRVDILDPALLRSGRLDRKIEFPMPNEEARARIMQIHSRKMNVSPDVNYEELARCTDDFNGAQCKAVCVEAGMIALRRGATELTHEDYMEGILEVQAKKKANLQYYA

Assays:
[1] = target: T1, Flag-tagged VCPIP1 (pVCPIP1-Flag) (UniProt Q96JH7); assay: co-IP; lysates of transfected Huh7 cells (1 mg) precipitated with EZview Red anti-Flag M2 affinity gel, Western blot; in Fig. 5A cells with or without pVCPIP1-Myc and treated with MG132
T1 sequence: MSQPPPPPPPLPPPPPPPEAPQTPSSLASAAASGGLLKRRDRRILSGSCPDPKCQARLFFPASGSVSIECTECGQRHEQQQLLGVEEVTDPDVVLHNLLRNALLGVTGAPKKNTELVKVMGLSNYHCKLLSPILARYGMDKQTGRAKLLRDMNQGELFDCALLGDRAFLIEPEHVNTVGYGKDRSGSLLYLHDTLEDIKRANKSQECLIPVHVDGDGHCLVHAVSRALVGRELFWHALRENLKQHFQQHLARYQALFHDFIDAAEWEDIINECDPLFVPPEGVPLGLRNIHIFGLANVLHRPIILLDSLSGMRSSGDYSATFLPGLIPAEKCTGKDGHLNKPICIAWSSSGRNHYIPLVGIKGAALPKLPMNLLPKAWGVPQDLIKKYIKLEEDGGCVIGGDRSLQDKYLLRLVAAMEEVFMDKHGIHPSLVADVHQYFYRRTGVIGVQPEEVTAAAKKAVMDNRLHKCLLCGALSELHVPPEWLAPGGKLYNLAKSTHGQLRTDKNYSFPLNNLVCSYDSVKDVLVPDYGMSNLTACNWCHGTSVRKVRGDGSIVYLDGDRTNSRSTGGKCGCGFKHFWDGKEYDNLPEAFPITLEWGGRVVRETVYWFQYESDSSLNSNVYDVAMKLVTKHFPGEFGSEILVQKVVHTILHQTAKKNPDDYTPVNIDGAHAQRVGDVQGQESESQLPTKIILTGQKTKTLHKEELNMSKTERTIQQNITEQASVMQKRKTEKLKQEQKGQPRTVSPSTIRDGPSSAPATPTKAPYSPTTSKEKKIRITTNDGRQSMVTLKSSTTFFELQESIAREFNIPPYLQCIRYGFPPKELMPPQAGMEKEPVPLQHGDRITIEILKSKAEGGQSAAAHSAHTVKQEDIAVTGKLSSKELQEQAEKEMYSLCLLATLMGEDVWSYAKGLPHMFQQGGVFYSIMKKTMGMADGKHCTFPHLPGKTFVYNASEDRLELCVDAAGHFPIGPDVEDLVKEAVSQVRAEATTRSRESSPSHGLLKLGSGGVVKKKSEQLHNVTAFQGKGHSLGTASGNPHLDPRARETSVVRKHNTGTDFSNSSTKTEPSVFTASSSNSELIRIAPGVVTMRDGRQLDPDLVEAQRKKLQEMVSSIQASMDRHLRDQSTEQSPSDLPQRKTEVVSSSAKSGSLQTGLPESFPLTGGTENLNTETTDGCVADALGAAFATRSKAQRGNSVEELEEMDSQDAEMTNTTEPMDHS

[2] = target: full-length PSMC3 (aa 1–439) fused to the DNA-BD epitope (pGBKT7-PSMC3 (aa 1–439)) (human) (UniProt P17980); assay: two-hybrid; Matchmaker Gold system; Y2HGold with pGBKT7 bait mated with Y187 with pGADT7 prey for 22 h; diploids selected on QDO/AbA (SD/-Trp/-Leu/-His/-Ade with 125 ng/mL aureobasidin A)

## endogenous PSMC3 (26S proteasome regulatory subunit 6A) (from UniProt P17980 1-439)
[1]
  binding: binds

B1: VCPIP1 (aa 1-1221) fused with the GAL4 AD domain (pGADT7-VCPIP1) (enzyme, UniProt Q96JH7 1-1221)
chain: MSQPPPPPPPLPPPPPPPEAPQTPSSLASAAASGGLLKRRDRRILSGSCPDPKCQARLFFPASGSVSIECTECGQRHEQQQLLGVEEVTDPDVVLHNLLRNALLGVTGAPKKNTELVKVMGLSNYHCKLLSPILARYGMDKQTGRAKLLRDMNQGELFDCALLGDRAFLIEPEHVNTVGYGKDRSGSLLYLHDTLEDIKRANKSQECLIPVHVDGDGHCLVHAVSRALVGRELFWHALRENLKQHFQQHLARYQALFHDFIDAAEWEDIINECDPLFVPPEGVPLGLRNIHIFGLANVLHRPIILLDSLSGMRSSGDYSATFLPGLIPAEKCTGKDGHLNKPICIAWSSSGRNHYIPLVGIKGAALPKLPMNLLPKAWGVPQDLIKKYIKLEEDGGCVIGGDRSLQDKYLLRLVAAMEEVFMDKHGIHPSLVADVHQYFYRRTGVIGVQPEEVTAAAKKAVMDNRLHKCLLCGALSELHVPPEWLAPGGKLYNLAKSTHGQLRTDKNYSFPLNNLVCSYDSVKDVLVPDYGMSNLTACNWCHGTSVRKVRGDGSIVYLDGDRTNSRSTGGKCGCGFKHFWDGKEYDNLPEAFPITLEWGGRVVRETVYWFQYESDSSLNSNVYDVAMKLVTKHFPGEFGSEILVQKVVHTILHQTAKKNPDDYTPVNIDGAHAQRVGDVQGQESESQLPTKIILTGQKTKTLHKEELNMSKTERTIQQNITEQASVMQKRKTEKLKQEQKGQPRTVSPSTIRDGPSSAPATPTKAPYSPTTSKEKKIRITTNDGRQSMVTLKSSTTFFELQESIAREFNIPPYLQCIRYGFPPKELMPPQAGMEKEPVPLQHGDRITIEILKSKAEGGQSAAAHSAHTVKQEDIAVTGKLSSKELQEQAEKEMYSLCLLATLMGEDVWSYAKGLPHMFQQGGVFYSIMKKTMGMADGKHCTFPHLPGKTFVYNASEDRLELCVDAAGHFPIGPDVEDLVKEAVSQVRAEATTRSRESSPSHGLLKLGSGGVVKKKSEQLHNVTAFQGKGHSLGTASGNPHLDPRARETSVVRKHNTGTDFSNSSTKTEPSVFTASSSNSELIRIAPGVVTMRDGRQLDPDLVEAQRKKLQEMVSSIQASMDRHLRDQSTEQSPSDLPQRKTEVVSSSAKSGSLQTGLPESFPLTGGTENLNTETTDGCVADALGAAFATRSKAQRGNSVEELEEMDSQDAEMTNTTEPMDH
[2]
  binding: binds
